Assay results published in US20230192650A1, “NOVEL ACID SECRETION INHIBITOR AND USE THEREOF” (Ildong Pharmaceutical Co., Ltd., priority 2020, published 2023).
For part of these data: For at least one compound, name, drawing or mass did not settle the structure. Some of these results come from one statement about several compounds together.

Amino acid sequences for entries named in this document (tags omitted). Residues count along the entry.
UniProt P19156, 2-1034 limits assumed: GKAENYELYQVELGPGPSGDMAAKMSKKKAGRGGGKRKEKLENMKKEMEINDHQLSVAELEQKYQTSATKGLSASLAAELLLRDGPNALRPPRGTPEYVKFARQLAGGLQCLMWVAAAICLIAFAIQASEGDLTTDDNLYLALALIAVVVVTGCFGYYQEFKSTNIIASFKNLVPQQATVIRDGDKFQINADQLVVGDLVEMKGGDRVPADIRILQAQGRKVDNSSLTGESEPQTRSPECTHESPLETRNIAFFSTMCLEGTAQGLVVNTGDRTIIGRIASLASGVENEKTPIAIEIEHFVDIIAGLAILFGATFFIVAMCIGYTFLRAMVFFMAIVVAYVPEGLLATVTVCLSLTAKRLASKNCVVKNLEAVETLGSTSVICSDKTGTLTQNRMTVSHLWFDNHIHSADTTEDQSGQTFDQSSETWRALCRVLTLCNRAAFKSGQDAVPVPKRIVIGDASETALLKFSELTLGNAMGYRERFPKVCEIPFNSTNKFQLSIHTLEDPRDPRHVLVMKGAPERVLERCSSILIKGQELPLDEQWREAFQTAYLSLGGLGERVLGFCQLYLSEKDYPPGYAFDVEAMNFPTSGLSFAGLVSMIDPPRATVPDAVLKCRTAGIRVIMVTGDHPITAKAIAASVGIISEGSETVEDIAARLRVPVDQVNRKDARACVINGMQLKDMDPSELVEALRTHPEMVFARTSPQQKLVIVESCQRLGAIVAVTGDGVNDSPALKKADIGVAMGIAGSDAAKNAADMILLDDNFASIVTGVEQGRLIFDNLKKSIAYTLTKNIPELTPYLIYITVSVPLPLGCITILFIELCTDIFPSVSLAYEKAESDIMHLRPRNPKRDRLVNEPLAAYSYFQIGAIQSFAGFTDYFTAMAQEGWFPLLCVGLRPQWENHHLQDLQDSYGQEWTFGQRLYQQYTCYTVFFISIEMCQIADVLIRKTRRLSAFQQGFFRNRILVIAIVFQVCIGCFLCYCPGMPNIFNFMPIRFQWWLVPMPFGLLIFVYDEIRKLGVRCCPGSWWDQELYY

How the values were obtained:
[1] = molecular target: T1, proton pump (H+/K+-ATPase) (Sus scrofa, UniProt P19156); assay: Reversibility of proton pump inhibition by jump dilution method; format: biochemical, pig; details: reaction for 60 minutes after the 50-fold dilution
T1 construct: Gastric vesicles isolated from pig stomach were prepared according to the document; from tissue; host or cells: pig stomach (gastric vesicles)
Protocol: In addition, in order to confirm the reversibility of the inhibition ability on the proton pump (H^+/K^+-ATPase) of the prepared compound, an experiment was performed by the jump dilution method. 6.25 μg of gastric vesicles isolated from pig stomach and 0.2 μM of each compound were pre-incubated for 120 minutes, and then the enzyme activity before dilution and the enzyme activity after 50-fold dilution were compared for each reaction time, and the reversibility was evaluated. In both Example 1 and Example 3, the inhibition ability of 50% or more was confirmed after 20 minutes of the reaction. On the other hand, when the reaction was performed for 60 minutes after the 50-fold dilution, in both Examples 1 and 3, the enzyme activity was recovered to 90% or more, and reversible results were confirmed.

[2] = molecular target: T1, proton pump (H+/K+-ATPase); assay: Proton pump (H+/K+-ATPase) inhibitory activity depending on pH; format: biochemical, pig; details: pH 6.5, pH 7.0, pH 7.5 compared
Protocol: The proton pump (H+/K+-ATPase) inhibitory activity of the prepared compound was measured as follows. Gastric vesicles isolated from pig stomach were prepared according to the document (see Methods Mol Biol. 2016; 1377:19-27). The protein contents of the gastric vesicles were quantified with a Bicinchoninic Acid (BCA) kit (Sigma Aldrich, BCA1). To each well of a 96-well plate, 70 μl of 50 mM Tris-HEPES buffer (pH 6.5) containing 125 ng of vesicles, DMSO or a substance for each concentration (final DMSO concentration of 1%), 5 mM MgCl2, and 10 mM KCl was added and pre-incubated at 37° C. for 30 minutes. Then, 10 μl of 2 mM ATP was added to each well, followed by enzymatic reaction at 37° C. for 40 minutes. The reaction was stopped by adding 20 μl of malachite green reagent (Sigma Aldrich, MAK307) and the resulting mixture was allowed to stand at room temperature for 30 minutes. By measuring the absorbance at 620 nm using a Microplate Reader (Biotek, Synergy H4), an amount of inorganic phosphorus released from ATP degradation was measured and the enzyme activity was measured. The absorbance of the enzyme-reacted sample without adding KCl was measured, and the measurement value was subtracted from all the above measurements. […]

CNCc1cn(S(=O)(=O)c2ccc(OC)nc2)c(-c2ccccc2F)c1OC [Example 1, 1-(5-(2-Fluorophenyl)-4-methoxy-1-((6-methoxypyridin-3-yl)sulfonyl)-1H-pyrrol-3-yl)-N-methylmethanamine]
enzyme activity recovered [1]: ≥ 90% | inhibition ability depending on pH [2]: higher inhibition ability in a weakly acidic condition compared to a neutral condition

CNCc1cn(S(=O)(=O)c2ccc(C)nc2)c(-c2ccc(F)cc2F)c1OC [Example 3, 1-(5-(2,4-Difluorophenyl)-4-methoxy-1-((6-methylpyridin-3-yl)sulfonyl)-1H-pyrrol-3-yl)-N-methylmethanamine]
enzyme activity recovered [1]: ≥ 90%
